# Several values for one entry are separate records, joined by “and”; a condition that tells them apart may be missing. Identical values can stand only once. Inconclusive means that the source gave no clear call. Such entries were picked first, then a sample of the others. Potencies beside an inconclusive call are fits to weak or partial responses and may not hold up. Activity calls are given as the source filed them. How the source made its calls: active means hit-call score of the fitted dose curve at least 0.9, where 1 is the maximum; inconclusive means response in the unintended direction; inactive means score below 0.9.
# The chains behind the UniProt entries cited, without tags or fusion partners.
# UniProt P04637, whole entry, looked up: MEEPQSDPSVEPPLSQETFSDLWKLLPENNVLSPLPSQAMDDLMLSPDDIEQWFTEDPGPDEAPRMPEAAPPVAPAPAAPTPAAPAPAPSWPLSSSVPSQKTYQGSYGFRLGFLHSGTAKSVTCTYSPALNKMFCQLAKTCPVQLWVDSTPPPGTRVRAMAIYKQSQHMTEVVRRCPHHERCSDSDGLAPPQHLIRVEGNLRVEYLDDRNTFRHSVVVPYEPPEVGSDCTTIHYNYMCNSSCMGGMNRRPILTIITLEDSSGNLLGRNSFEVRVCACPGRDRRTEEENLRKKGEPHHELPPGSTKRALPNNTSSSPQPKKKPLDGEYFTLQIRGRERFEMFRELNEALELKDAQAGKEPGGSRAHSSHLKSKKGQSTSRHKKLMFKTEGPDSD
# Molecular target: Cellular tumor antigen p53 (Homo sapiens) (UniProt P04637)
# Assay: TOX21_p53_BLA_p4_ratio: Tox21 HCT-116 p53 Agonism Beta-lactamase Assay, Ratio, Phase 4 (AID 2283601)
# Outline: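 HCT-116 p53 beta-lactamase reporter cells (4000/well) preincubated 5 h, then compound (217-fold dilution of DMSO stock) for 16 h at 37C. CCF4-AM substrate added 2 h at room temperature; 460/530 nm emission ratio fitted upward versus DMSO.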
Structure (SMILES),AC50,outcome
CC(CNC(=O)c1cccnc1)NC(=O)c1cccnc1 (stereo not drawn),inconclusive: 23 µM,–
CN(C)CCCOc1nn(Cc2ccccc2)c2ccccc12,inconclusive: 19.5 µM,–
CC(C)(C)C(=O)OCOP(=O)(COCCn1cnc2c(N)ncnc21)OCOC(=O)C(C)(C)C,inconclusive: 23 µM,–
NC(=O)C1(N2CCCCC2)CCN(CCCC(=O)c2ccc(F)cc2)CC1,inconclusive: 23 µM,–
CC(C)NNC(=O)c1ccncc1,–,inactive
COc1ccccc1N1CCN(CCCNc2cc(=O)n(C)c(=O)n2C)CC1,inconclusive: 23 µM,–
CC(CCc1ccc(O)cc1)NCC(O)c1ccc(O)cc1 (stereo not drawn),inconclusive: 23 µM,–
CN1CCN2c3ncccc3Cc3ccccc3C2C1 (stereo not drawn),inconclusive: 23 µM,–
FC(F)(F)c1ccccc1Cl,–,inactive
CCN1CCCC(OC(=O)C(c2ccccc2)c2ccccc2)C1 (stereo not drawn),inconclusive: 10.3 µM,–
COc1ccc2[nH]c(S(=O)Cc3ncc(C)c(OC)c3C)nc2n1 (stereo not drawn),–,inactive
CC(=O)OCC(C)C,inconclusive: 85.7 µM,–
CC(C)CCCC(=O)O,inconclusive: 46.1 µM,–
CN1CCN(C2Cc3ccccc3Sc3ccc(Cl)cc32)CC1 (stereo not drawn),–,inactive
O=C1CCN(c2ccccc2)N1,inconclusive: 46.2 µM,–
Oc1ccc(C2(c3ccc(O)cc3)CC3CC2C2CCCC32)cc1 (stereo not drawn),active: 83.1 µM,–
CN(C)CCN1C(=O)c2ccccc2N(C)c2ccccc21,inconclusive: 15.3 µM,–
[Cl-].[Cl-].[NH-]CC[NH-].[Pt+4],inconclusive: 23 µM,–
Cc1ccc(/C(=C\CN2CCCC2)c2ccccn2)cc1,inconclusive: 19.2 µM,inactive
C1=C\CC/C=C\CC/1,–,inactive
CCOc1ccc(S(=O)(=O)O)c2cccnc12,inconclusive: 40.1 µM,–
Cc1ccc(Cl)cc1Cl,inconclusive: 86.9 µM,–
CCCCC1=NC2(CCCC2)C(=O)N1Cc1ccc(-c2ccccc2-c2nn[nH]n2)cc1,inconclusive: 40.7 µM,–
CC(=O)OCC(=O)[C@@]1(O)CCC2C3CCC4=CC(=O)CC[C@]4(C)C3C(O)C[C@@]21C (stereo partly drawn),–,inactive
O=S1(=O)c2cccc3cccc(c23)N1CCCN1CCN(c2ccc(F)cc2)CC1,–,inactive
COC(=O)Nc1nc2ccc(C(=O)c3ccccc3)cc2[nH]1,–,inactive
CC[C@@]1(O)C[C@@H]2CN(CCc3c([nH]c4ccccc34)[C@@](C(=O)OC)(c3cc4c(cc3OC)N(C)[C@H]3[C@@](O)(C(=O)OC)[C@H](OC(C)=O)[C@]5(CC)C=CCN6CC[C@]43[C@@H]65)C2)C1,inconclusive: 3.62 µM and inconclusive: 23 µM,–
